From the supplement of paper PMC3545927
The list shows a part of the results, in another mix than the full data.

Chains of the proteins cited; added tags and fusions are not shown.
furin, P09958, UniProt P09958, whole entry: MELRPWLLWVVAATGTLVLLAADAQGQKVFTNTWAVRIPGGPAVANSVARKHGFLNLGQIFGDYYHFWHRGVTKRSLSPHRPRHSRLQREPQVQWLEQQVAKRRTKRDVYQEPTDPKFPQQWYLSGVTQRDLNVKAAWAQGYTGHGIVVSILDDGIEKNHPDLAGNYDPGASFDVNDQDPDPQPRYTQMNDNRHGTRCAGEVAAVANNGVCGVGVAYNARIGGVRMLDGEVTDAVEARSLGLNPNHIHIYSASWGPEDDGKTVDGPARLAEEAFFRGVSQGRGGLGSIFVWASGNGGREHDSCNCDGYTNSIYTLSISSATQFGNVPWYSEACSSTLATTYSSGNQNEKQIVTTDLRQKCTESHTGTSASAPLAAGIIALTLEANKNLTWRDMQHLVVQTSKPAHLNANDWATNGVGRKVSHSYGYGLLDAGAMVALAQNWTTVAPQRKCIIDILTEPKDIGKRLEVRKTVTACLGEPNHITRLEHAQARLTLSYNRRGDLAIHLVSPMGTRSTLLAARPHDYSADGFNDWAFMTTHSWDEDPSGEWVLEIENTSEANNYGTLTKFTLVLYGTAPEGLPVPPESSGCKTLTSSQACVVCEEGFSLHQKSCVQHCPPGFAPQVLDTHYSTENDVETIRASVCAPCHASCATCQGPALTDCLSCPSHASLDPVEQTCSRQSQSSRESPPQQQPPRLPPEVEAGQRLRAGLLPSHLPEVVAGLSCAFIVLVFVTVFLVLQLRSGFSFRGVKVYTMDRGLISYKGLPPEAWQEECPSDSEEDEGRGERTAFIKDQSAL

Target: furin, P09958
Assay: furin cleavage Z-score vs untreated control; higher = more cleavage, active = 3.5 or more, inactive = 1 or less, 8 variable residues between constant flanks
Summary of the method: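 Purified furin cleaved 8-mer peptides that were fused to a cDNA oligonucleotide and held on magnetic beads by their N-terminus. Each 0.01 ml reaction used a 1:10 enzyme:substrate ratio in 50 mM HEPES pH 7.5 with CaCl2 and NaCl and ran 7.5, 15 or 30 min. Released DNA was adapter-tagged by PCR and sequenced, and read counts gave abundance. The cleavage Z-score came from log counts against furin-free reactions, lowess-adjusted and scaled by median absolute deviation.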

| Sequence | furin cleavage Z-score (7.5 min) | furin cleavage Z-score (15 min) | furin cleavage Z-score (30 min) |
| --- | --- | --- | --- |
| CARIKKWLEHAGNASASA [FS-1721] | inactive: -1.04 | inactive: 0.181 | 1.15 |
| CAGDIRVRRLAGNASASA [FS-423] | active: 3.94 | active: 5.14 | active: 6.57 |
| CARLEAACNWAGNASASA [HC480] | 1.97 | 2.25 | 1.45 |
| CALPSRVARLAGNASASA [FS-1232] | 1.51 | 1.77 | 1.82 |
| CARFRRSRRTAGNASASA [FS-2666] | active: 7.49 | active: 8.92 | active: 6.66 |
| CARTRRISQTAGNASASA [FS-2468] | inactive: -0.0765 | inactive: 0.134 | inactive: 0.486 |
| CAMTTDNLKCAGNASASA [HC1213] | inactive: -0.575 | inactive: -0.0624 | inactive: 0.0584 |
| CAYLIRARRSAGNASASA [FS-1439] | 2.86 | 2.54 | 1.78 |
| CAAQKRSVGSAGNASASA [FS-2626] | inactive: 0.58 | inactive: 0.683 | inactive: -0.853 |
| CAVCEKMALYAGNASASA [HC1455] | 1.19 | 1.97 | 1.59 |
| CAMEECSQHWAGNASASA [HC1768] | 1.19 | 2.17 | 1.37 |
| CATQSRIRRMAGNASASA [FS-511] | active: 5.23 | active: 7.4 | active: 6.25 |
| CAKSRRFAQAAGNASASA [HC1299] | 1.36 | 1.43 | 1.63 |
| CAQPRGRRQPAGNASASA [HC189] | 3.39 | 3.18 | 3.19 |
| CALAQRQRRIAGNASASA [FS-347] | inactive: 0.264 | inactive: -0.423 | inactive: 0.578 |
| CAMEECMQHLAGNASASA [HC28] | 1.16 | 1.4 | 1.54 |
| CAQLQRQGRGAGNASASA [FS-283] | 2.21 | 2.93 | 2.47 |
| CARQARRAEPAGNASASA [FS-2505] | 2.51 | 3.08 | 1.66 |

Shown with tabs: entries from further up.
Sequence	furin cleavage Z-score (7.5 min)	furin cleavage Z-score (15 min)	furin cleavage Z-score (30 min)
CAMEECMQHLAGNASASA [HC28]	1.16	1.4	1.54
CAQLQRQGRGAGNASASA [FS-283]	2.21	2.93	2.47
